The list shows a part of the results. The main result of the screen is listed elsewhere. These columns were measured beside it and carry no call. Compounds called inactive in the main read-out are mostly missing here. Words in brackets tell the shape of the fitted curve; partial curves, single points and poor fits give uncertain potencies.

This assay can be described thus: qHTS Assay for Modulators of Lamin A Splicing. The note with it: HeLa LMNA splicing GFP/RFP minigene ratio, 48 h. The gist of the method: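 Read-out is the ratio of GFP to DsRed2 object intensity, acquired by 488 nm laser-scanning cytometry on HeLa lamin A-EGFP minigene reporter cells. Compound incubation 48 hrs at 37 °C in Opti-MEM with 2% FBS; DMSO 0.5% final.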
A general note: Quantitative high-throughput screening tests each substance at several concentrations.

[1] abbreviates: measured here: GFP splicing reporter channel.
Setting [2] is: measured here: RFP viability control channel.

Turning to `CC(NC(=O)c1cccc(Nc2nc3ccccc3n3nnnc23)c1)c1ccccc1` (configuration not stated), the AC50 – broadly, the concentration giving half of the maximal activity seen – reads like this: under setting [1], 11.2 µM [falling, partial curve]; under setting [2], 10 µM [falling, partial curve].

On to `Cc1ccc(N2CCN(c3ncnc4onc(-c5ccc(F)cc5)c34)CC2)c(C)c1`, for which the AC50 under setting [2] is 10 µM [rising, partial curve, poor fit].

Regarding `CCCCCOCC1CC(C/C(C)=N/NC(N)=S)C(=O)O1` (configuration not stated), the AC50 under setting [1] was 5.62 µM [rising, single point] and the AC50 under setting [2] was 35.5 µM [rising, single point].

On to `N#Cc1nc(-c2ccc(OCc3ccccc3)cc2)oc1NCc1cccnc1`, for which the AC50 under setting [1] is 4.47 µM [rising, partial curve, poor fit].

Turning to `COc1ccc(Cl)cc1S(=O)(=O)N1CCN(Cc2ccc3c(c2)OCO3)CC1`, the AC50 under setting [2] is 3.55 µM [rising, single point].

Regarding `COc1ccc(C(=O)NN(C)c2nc(-c3ccccc3)cc(C)c2S(C)(=O)=O)cc1`, under setting [2], the AC50 was 12.6 µM [rising, partial curve, poor fit].

In the case of `CC(C)Cc1ccc(/C=C/C(=O)NC2CC2)cc1`, the AC50 under setting [1] was 12.6 µM [rising, single point].

For the molecule `O=C(CSc1ccc2nnc(-c3ccc(F)cc3)n2n1)N1CCCc2ccccc21`, the AC50 under setting [1] was 1.41 µM [falling, full curve, poor fit].

Turning to `CC(C)Cn1c(N)c(C(=O)COC(=O)c2cccc(F)c2)c(=O)n(C)c1=O`, under setting [2], the AC50 is 35.5 µM [rising, single point].

As to `COc1cccc(OC)c1OCCCOc1cccc2cccnc12`, under setting [2], the concentration at half-maximal activity (AC50) is 0.02 µM [rising, full curve, poor fit].

For `COc1c(C)c2c(c(O)c1C/C=C(\C)CCC(=O)O)C(=O)OC2`, the AC50 reads like this: under setting [1], 0.224 µM [falling, full curve]; under setting [2], 0.141 µM [rising, full curve].

With `CCc1ccc(C(=O)COC(=O)C(CCSC)NC(=O)c2ccccc2)cc1` (configuration not stated), under setting [1], the AC50 was 6.31 µM [falling, partial curve, poor fit].

Consider `CCN(CC)S(=O)(=O)c1nnc(NC(=O)COc2ccccc2)s1`, for which, under setting [1], the AC50 was 0.794 µM [rising, single point].

For `CC(C)(C)OC(=O)N1CCC(c2c(C(=O)NCCN3CCOCC3)cnn2-c2cccc(F)c2)CC1`, the AC50 under setting [1] is 0.562 µM [falling, full curve] and the AC50 under setting [2] is 0.112 µM [falling, full curve].

As for `COc1ccc(Oc2ncc3nc(-c4ccc(OC)cc4)c(=O)n(C4CC4)c3n2)cc1`, the AC50 under setting [1] was 7.08 µM [falling, partial curve].

As for `O=C(O)C1C2C=CC(C2)C1C(=O)NCc1ccc(Cl)c(Cl)c1` (configuration not stated), the AC50 under setting [1] was 12.6 µM [rising, single point] and the AC50 under setting [2] was 22.4 µM [rising, single point].

With `COc1ccc(OCCNC(=O)c2ccccc2OCC(=O)N2CCCCC2)cc1`, the AC50 under setting [2] is 31.6 µM [rising, single point].

Consider `COc1ccc(C)cc1NC(=O)c1ccc(OC(F)F)cc1`, for which the AC50 was 35.5 µM [rising, single point] under setting [1] and 35.5 µM [rising, single point] under setting [2].

`Oc1c(C(c2ccc(F)cc2)N2CCCC2)sc2nc(-c3ccco3)nn12` (configuration not stated): the AC50 under setting [1] is 3.98 µM [falling, partial curve, poor fit].

With `O=c1c2ccccc2nc(/C=C/c2ccc([N+](=O)[O-])o2)n1CCCO`, the AC50 is, setting by setting: under setting [1], 6.31 µM [falling, full curve]; under setting [2], 2.82 µM [falling, full curve].

As for `Cc1ccc(S(=O)(=O)c2cn(C)c3cc(N4CCOCC4)c(F)cc3c2=O)c(C)c1`, under setting [1], the AC50 was 10 µM [falling, single point].

Regarding `CCOc1cc(CNc2ccccc2)cc(Br)c1OCc1ccccc1F`, the AC50 under setting [2] was 17.8 µM [rising, single point].

As for `COc1ccc(C(=O)c2ccc(Cl)c([N+](=O)[O-])c2)cc1`, the AC50 is 2.82 µM [falling, single point] under setting [1] and 3.55 µM [falling, single point] under setting [2].

Regarding `O=S(=O)(c1ccc2ccccc2c1)n1cnc2ccccc21`, the AC50 under setting [2] was 35.5 µM [rising, single point].

Consider `O=C(Oc1ccccc1C(=O)O)c1ccccc1O`, for which the AC50 under setting [1] is 0.00631 µM [falling, full curve, poor fit].

`Cc1cccc(NC(=O)CN(c2ccc(F)cc2)S(C)(=O)=O)c1`: the AC50 runs as follows: under setting [1], 35.5 µM [falling, single point]; under setting [2], 35.5 µM [falling, single point].

Regarding `Cc1ccnc(SCC(=O)Nc2sc3c(c2C#N)CCCC3)n1`, the AC50 under setting [2] was 0.708 µM [rising, full curve].

`Cc1ccc(CCNC(=O)Cn2ncc3c([nH]c4ccccc43)c2=O)cc1`: the AC50 reads like this: under setting [1], 5.01 µM [falling, partial curve, poor fit]; under setting [2], 0.794 µM [falling, full curve].

Consider `NC(=O)NC(=O)C[n+]1cccc(/C=N/O)c1`, for which the AC50 reads like this: under setting [1], 10 µM [falling, partial curve, poor fit]; under setting [2], 7.94 µM [falling, partial curve].

As for `O=C(CCS(=O)(=O)c1cccs1)Nc1ccc(C(=O)NC2CCN(Cc3ccccc3)CC2)cc1`, the AC50 under setting [1] was 35.5 µM [falling, single point].

Take `Cc1c(C(=O)N2CCc3ccccc3C2)oc2ccc(S(=O)(=O)N3CCCCCC3)cc12`: the AC50 under setting [1] was 6.31 µM [rising, full curve] and the AC50 under setting [2] is 10 µM [rising, partial curve].

Turning to `O=C(Nc1cccc(-c2nnc(-c3ccco3)o2)c1)C(c1ccccc1)c1ccccc1`, under setting [1], the AC50 was 15.8 µM [rising, single point].

With `O=C(Nc1ccc(Oc2ccc(Cl)cc2)cc1)c1ncn[nH]1`, under setting [2], the AC50 is 14.1 µM [rising, single point].

For the molecule `Cc1cccc(NC(=O)c2cccc(NC(=O)Cc3cccs3)c2)c1`, the AC50 under setting [2] is 7.08 µM [rising, full curve, poor fit].

Turning to `CC(C)(Oc1ccc(Cl)cc1)C(=O)Nc1cccc(-c2cn3cccnc3n2)c1`, the AC50 under setting [1] is 0.891 µM [falling, full curve].

On to `O=[N+]([O-])c1cc(Cl)cc(/C=N/Nc2nc3ccccc3s2)c1O`, for which the AC50 under setting [1] was 35.5 µM [falling, single point] and the AC50 under setting [2] was 6.31 µM [falling, single point].

For `Cc1ccc(Nc2nc(-c3ccc(S(=O)(=O)N4CCOCC4)cc3)cs2)cc1Cl`, the AC50 by setting is: under setting [1], 2.24 µM [rising, partial curve]; under setting [2], 2.51 µM [rising, partial curve].

Regarding `Cc1cc(C)cc(NC(=O)c2ccc(NC(=O)C3C4CC5OC(=O)C3C5C4)cc2)c1` (configuration not stated), the AC50 under setting [1] was 0.00355 µM [rising, full curve, poor fit].

For `CCOc1ccc(/C=C/C(=O)NCCc2ccc(OC)c(OC)c2)cc1`, the AC50 reads like this: under setting [1], 0.0251 µM [rising, full curve, poor fit]; under setting [2], 0.282 µM [rising, partial curve, poor fit].

Turning to `COc1cc(-c2cc3n(C)c(C)c(CCC(=O)Nc4ccc(F)cc4)c(=O)n3n2)cc(OC)c1OC`, the AC50 is 2.82 µM [falling, full curve] under setting [1] and 3.55 µM [falling, full curve, poor fit] under setting [2].

In the case of `COc1cccc(-c2cnc(NCc3cc(Cl)ccc3O)n2C)c1`, the AC50 under setting [2] was 12.6 µM [rising, single point].

Consider `COc1ccccc1/C=C/C(=O)OCC(=O)Nc1ccccc1Sc1ccccc1`, for which, under setting [2], the AC50 is 12.6 µM [rising, single point].

For the molecule `CCN(C(=S)NC(=O)c1ccccc1Br)C1CCCCC1`, the AC50 is 35.5 µM [rising, single point] under setting [1] and 35.5 µM [rising, single point] under setting [2].

Consider `CCOC(=O)c1[nH]c(C)c(CCC(=O)NCc2cccc(Cl)c2)c1C`, for which the AC50 under setting [1] was 0.355 µM [rising, full curve, poor fit].

In the case of `Cc1cc(C)cc(NC(=O)C2CCCC2)c1`, the AC50 reads like this: under setting [1], 2 µM [falling, partial curve]; under setting [2], 1.58 µM [falling, partial curve].

`Cc1ccc(C(=O)Nc2ccc(C)c(S(=O)(=O)Nc3ccccc3Cl)c2)s1`: the AC50 under setting [2] is 0.891 µM [rising, partial curve].

As for `CC(C)CNS(=O)(=O)c1ccc(CCC(=O)NCC2CCCO2)cc1` (configuration not stated), the AC50 is, setting by setting: under setting [1], 0.794 µM [falling, full curve]; under setting [2], 0.794 µM [falling, full curve, poor fit].

For the molecule `Cc1cc(OC(=O)CNC(=O)OC(C)(C)C)c2c(C)cc(=O)oc2c1`, the AC50 under setting [1] was 22.4 µM [rising, single point].

As for `O=C(O)c1ccccc1C(=O)c1cccs1`, the AC50 under setting [2] is 0.631 µM [falling, partial curve, poor fit].

As to `S=C(Nc1ccc(Cl)cc1)NC1CCN(Cc2ccccc2)CC1`, the AC50 reads like this: under setting [1], 0.355 µM [rising, partial curve]; under setting [2], 8.91 µM [rising, partial curve].

Take `CCC(=O)c1ccc(OCC(O)Cn2cnc3ccccc32)cc1` (configuration not stated): the AC50 was 12.6 µM [rising, partial curve] under setting [1] and 12.6 µM [rising, partial curve] under setting [2].

As for `COC(=O)c1ccc(C(=O)OC)c(-n2c(=O)c3ccccc3c3ccccc3c2=O)c1`, under setting [1], the AC50 is 22.4 µM [falling, single point].

Consider `COC(=O)C1=C(N)Oc2cc(C)n(C)c(=O)c2C1c1ccc(Cl)cc1` (configuration not stated), for which the half-maximal activity concentration (AC50) under setting [2] was 35.5 µM [rising, single point].

Turning to `CC(C)OC(=O)c1c(-c2ccc(C(C)C)cc2)csc1NC(=O)C1CCCO1` (configuration not stated), the AC50 under setting [1] is 14.1 µM [rising, partial curve] and the AC50 under setting [2] is 17.8 µM [rising, partial curve].

`C=CCC1(N(C(C)=O)c2ccccc2C)CCCCC1`: the AC50 under setting [1] is 8.91 µM [rising, partial curve, poor fit].
